Test results: article PMC6693180
These are yes or no findings as the source states them, for the method shown. In cells and extracts the contact can be indirect. Here binding means that the protein was enriched with, or labelled near, the bait; the list need not be complete.

Chains of the proteins cited; added tags and fusions are not shown.
UniProt Q9NZJ0: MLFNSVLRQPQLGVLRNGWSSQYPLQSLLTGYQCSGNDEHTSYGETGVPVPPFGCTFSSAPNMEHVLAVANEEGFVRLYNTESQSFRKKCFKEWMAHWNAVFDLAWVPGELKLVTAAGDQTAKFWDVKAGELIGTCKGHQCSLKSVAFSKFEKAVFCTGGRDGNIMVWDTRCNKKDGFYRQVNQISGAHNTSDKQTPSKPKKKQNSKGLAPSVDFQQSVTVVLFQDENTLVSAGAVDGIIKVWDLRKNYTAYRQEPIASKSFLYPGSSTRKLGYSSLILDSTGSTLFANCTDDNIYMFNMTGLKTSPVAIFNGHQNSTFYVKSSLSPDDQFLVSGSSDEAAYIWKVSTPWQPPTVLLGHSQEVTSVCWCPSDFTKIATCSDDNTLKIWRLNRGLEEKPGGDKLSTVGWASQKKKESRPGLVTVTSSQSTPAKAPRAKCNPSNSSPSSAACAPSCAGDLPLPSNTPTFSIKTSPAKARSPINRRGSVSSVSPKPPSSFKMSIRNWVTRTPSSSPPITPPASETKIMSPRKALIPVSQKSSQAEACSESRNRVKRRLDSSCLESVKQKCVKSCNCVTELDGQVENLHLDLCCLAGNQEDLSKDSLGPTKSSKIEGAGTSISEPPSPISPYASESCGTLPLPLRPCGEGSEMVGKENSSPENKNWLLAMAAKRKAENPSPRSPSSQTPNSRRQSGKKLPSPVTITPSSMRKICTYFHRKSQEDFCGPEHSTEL

Molecular target: Flag-DTL (human) (UniProt Q9NZJ0)
Experiment: affinity purification with mass spectrometry; 293T lysate with Flag-DTL (weak lysis buffer) on Flag magnetic affinity resin; SDS-PAGE, Coomassie-stained bands excised and analysed by mass spectrometry

B1: Programmed cell death 4 (PDCD4) (protein, UniProt Q53EL6 1-469)
chain: MDVENEQILNVNPADPDNLSDSLFSGDEENAGTEEIKNEINGNWISASSINEARINAKAKRRLRKNSSRDSGRGDSVSDSGSDALRSGLTVPTSPKGRLLDRRSRSGKGRGLPKKGGAGGKGVWGTPGQVYDVEEVDVKDPNYDDDQENCVYETVVLPLDERAFEKTLTPIIQEYFEHGDTNEVAEMLRDLNLGEMKSGVPVLAVSLALEGKASHREMTSKLLSDLCGTVMSTTDVEKSFDKLLKDLPELALDTPRAPQLVGQFIARAVGDGILCNTYIDSYKGTVDCVQARAALDKATVLLSMSKGGKRKDSVWGSGGGQQSVNHLVKEIDMLLKEYLLSGDISEAEHCLKELEVPHFHHELVYEAIIMVLESTGESTFKMILDLLKSLWKSSTITVDQMKRGYERIYNEIPDINLDVPHSYSVLERFVEECFQAGIISKQLRDLCPSRGRKRFVSEGDGGRLKPESY
**Q.** How did the binding turn out when B1 was run?
**A.** binds
